Source: PubChem BioAssay AID312 (DTP/NCI, 2004)
The list shows only some results of the screen, not a fair sample: it gathers tests that were run many times, whatever their T/C, doses with no T/C, and many T/C values between a quarter and a half above the control. Other doses and runs of a compound stand elsewhere. T/C gives the treated animals as a percentage of the vehicle group. Some doses have a count of surviving animals in place of a T/C: the source files T/C as zero there, which appears to mark a toxic dose or a test without result, not a measured value. Some survivor counts are full or nearly so, which does not show that the dose was tolerated: survival well below the control is almost never listed, so the zero probably covers shortened survival too. Counts of survivors are from the toxicity check (mostly the fifth day) where no day follows; animals may have died later. Schedule codes are those of the source, read here as Q, the interval in days (D) or hours (H), X, the number of doses. Some entries hold several experiments; the values are given in rising order. Where survival is the endpoint, this PubChem deposit counts one and a half times the control or more as active, and values a quarter to a half above the control carry no call in these data; other NCI protocols may use other cut-offs. Some T/C values carry the count of animals alive at the toxicity check (mostly the fifth day); without a count, all were alive then.

Test system: BDF1 mice, C1498 leukemia ip, median survival T/C
Assay: NCI In Vivo Anticancer Drug Screen. Data for tumor model C1498 Myeloid Leukemia (intraperitoneal) in B6D2F1 (BDF1) mice
Settings: T/C endpoint: median survival time, higher T/C = longer survival
Description: The antitumor activity of compounds was measured in mice bearing transplantable tumors. Survival or tumor size were measured and the results are expressed as the measurement made in the treated group (T) divided by the measurement made in the vehicle treated control group (C). The tumor model used in this assay is C1498 Myeloid Leukemia (intraperitoneal) in B6D2F1 (BDF1) mice

[1] = dose: 200.0 mg/kg/injection, schedule: Q01DX010 (ip), vehicle: saline
[2] = dose: 250.0 mg/kg/injection, schedule: Q01DX010 (ip), vehicle: saline
[3] = dose: 8.0 mg/kg/injection, schedule: Q01DX010 (ip), vehicle: saline
[4] = dose: 10.0 mg/kg/injection, schedule: Q01DX010 (ip), vehicle: saline
[5] = dose: 40.0 mg/kg/injection, schedule: Q01DX010 (ip), vehicle: saline
[6] = dose: 80.0 mg/kg/injection, schedule: Q01DX010 (ip), vehicle: saline
[7] = dose: 12.5 mg/kg/injection, schedule: Q01DX010 (ip), vehicle: saline
[8] = dose: 25.0 mg/kg/injection, schedule: Q01DX010 (ip), vehicle: saline
[9] = dose: 50.0 mg/kg/injection, schedule: Q01DX010 (ip), vehicle: saline
[10] = dose: 100.0 mg/kg/injection, schedule: Q01DX010 (ip), vehicle: saline
[11] = dose: 0.5 mg/kg/injection, schedule: Q01DX010 (ip), vehicle: saline
[12] = dose: 1.0 mg/kg/injection, schedule: Q01DX010 (ip), vehicle: saline
[13] = dose: 64.0 mg/kg/injection, schedule: Q01DX010 (ip), vehicle: saline
[14] = dose: 20.0 mg/kg/injection, schedule: Q01DX010 (ip), vehicle: saline
[15] = dose: 2.5 mg/kg/injection, schedule: Q01DX010 (ip), vehicle: saline
[16] = dose: 2.0 mg/kg/injection, schedule: Q01DX010 (ip), vehicle: saline

Question: With COc1cc(-c2ccc(Nc3ccccc3C(=O)O)c(OC)c2)ccc1Nc1ccccc1C(=O)O as the molecule, how does the survivor count [1] read?
Answer: 6 of 6

Question: CCN(CC)CCNc1ccc(C)c2sc3ccccc3c(=O)c12 was tested. Which survivor count [1] did it give?
Answer: 6 of 6

Question: How did the survivor count [2] turn out when CCCSc1ncnc2nc[nH]c12 was run?
Answer: 0 of 6

Question: With CN(C)[C@@H]1C(=O)C(C(N)=O)=C(O)[C@@]2(O)C(=O)C3=C(O)c4c(O)cccc4C[C@H]3C[C@@H]12 as the molecule, how does the survivor count (dose: 60.0 mg/kg/injection, schedule: Q01DX010 (ip), vehicle: saline) read?
Answer: 6 of 6

Question: For Nc1nc2n[nH]nc2c(=O)[nH]1, which survivor count (dose: 200.0 mg/kg/injection, schedule: Q01DX010 (ip), vehicle: alkali diluted with saline) is on record?
Answer: 6 of 6

Question: Which survivor count [3] does the source give for Nc1nc(F)nc2c1ncn2C1OC(CO)C(O)C1O (stereo not drawn) here?
Answer: 6 of 6

Question: Which T/C (dose: 5.0 mg/kg/injection, schedule: Q01DX010 (ip), vehicle: saline) does the source give for O=c1[nH]cc(F)c(=O)[nH]1 here?
Answer: 131 % of control

Question: What about the T/C [4] of the same molecule?
Answer: 131 % of control

Question: And the survivor count [5]?
Answer: 6 of 6

Question: Which survivor count (dose: 1000.0 mg/kg/injection, schedule: Q01DX010 (ip), vehicle: saline) does the source give for CCOC(N)=O here?
Answer: 5 of 6 and 6 of 6

Question: C#CCN(C)Cc1ccccc1 was tested. Which survivor count (dose: 400.0 mg/kg/injection, schedule: Q01DX010 (ip), vehicle: saline) did it give?
Answer: 0 of 6

Question: Which results are given for O=C(Nc1ccc(C2=NCCN2)cc1)c1ccc(C(=O)Nc2ccc(C3=NCCN3)cc2)c([N+](=O)[O-])c1?
Answer: T/C [3]: 126 % of control; survivor count (dose: 18.0 mg/kg/injection, schedule: Q01DX010 (ip), vehicle: saline): 6 of 6

Question: Cc1cc(N(CCCl)CCCl)ccc1N=Nc1ccccc1C(=O)O was tested. Which T/C [4] did it give?
Answer: 131 % of control [5 of 6 alive]

Question: And the survivor count [5]?
Answer: 6 of 6

Question: And the survivor count [6]?
Answer: 5 of 6

Question: Nc1nc(=S)c2[nH]cnc2[nH]1 was tested. Which T/C (dose: 27.0 mg/kg/injection, schedule: Q01DX001 (ip), vehicle: alkali diluted with saline) did it give?
Answer: 130 % of control

Question: And the T/C (dose: 40.0 mg/kg/injection, schedule: Q01DX001 (ip), vehicle: alkali diluted with saline, evaluated on day 45)?
Answer: 137 % of control

Question: And the T/C (dose: 40.0 mg/kg/injection, schedule: Q01DX001 (ip), vehicle: alkali diluted with saline, evaluated on day 60)?
Answer: 130 % of control

Question: What about the T/C (dose: 60.0 mg/kg/injection, schedule: Q01DX001 (ip), vehicle: alkali diluted with saline, evaluated on day 45) of the same molecule?
Answer: 145 % of control

Question: And the T/C (dose: 60.0 mg/kg/injection, schedule: Q01DX001 (ip), vehicle: alkali diluted with saline, evaluated on day 60)?
Answer: 131 % of control [9 of 10 alive on day 6]

Question: For O=C(O)CCCc1ccc(N(CCCl)CCCl)cc1, which T/C [7] is on record?
Answer: 130 % of control

Question: What about the survivor count [8] of the same molecule?
Answer: 0 of 6

Question: How did the T/C (dose: 125.0 micrograms/kg/injection, schedule: Q01DX010 (ip), vehicle: saline) turn out when O[C@H](CN1CC1)[C@@H](O)CN1CC1 was run?
Answer: 130 % of control

Question: What about the T/C (dose: 250.0 micrograms/kg/injection, schedule: Q01DX010 (ip), vehicle: saline) of the same molecule?
Answer: 146 % of control

Question: What does the source list for O=[n+]1c2c(n([O-])c3ccccc31)-c1cccc3cccc-2c13?
Answer: survivor count [8]: 6 of 6; survivor count [9]: 6 of 6; survivor count [10]: 6 of 6; survivor count [1]: 6 of 6

Question: For Nc1nc(N)c2nc(CNc3ccc(C(=O)NC(CCC(=O)O)C(=O)O)cc3)cnc2n1 (stereo not drawn), which T/C (dose: 0.4 mg/kg/injection, schedule: Q01DX010 (ip), vehicle: other) is on record?
Answer: 126 % of control

Question: For O=c1cnn(C2OC(CO)C(O)C2O)c(=O)[nH]1 (stereo not drawn), which survivor count (dose: 1600.0 mg/kg/injection, schedule: Q01DX010 (ip), vehicle: saline) is on record?
Answer: 6 of 6

Question: Which survivor count (dose: 5.0 mg/kg/injection, schedule: Q01DX010 (ip), vehicle: other) does the source give for COc1cccc2c1C(=O)c1c(O)c3c(c(O)c1C2=O)C[C@@](O)(C(C)=O)C[C@@H]3OC1CC(N)C(O)C(C)O1 (stereo partly drawn) here?
Answer: 6 of 6

Question: And the survivor count (dose: 10.0 mg/kg/injection, schedule: Q01DX010 (ip), vehicle: other)?
Answer: 6 of 6

Question: And the T/C (dose: 625.0 micrograms/kg/injection, schedule: Q01DX010 (ip), vehicle: saline)?
Answer: 136 % of control

Question: And the T/C (dose: 1250.0 micrograms/kg/injection, schedule: Q01DX010 (ip), vehicle: saline)?
Answer: 136 % of control

Question: CS(=O)(=O)OCCC(=O)N1CCN(C(=O)CCOS(C)(=O)=O)CC1 was tested. Which T/C [9] did it give?
Answer: 135 % of control

Question: Which results are given for CC(=O)NC1=C(N2CC2)C(=O)C(NC(C)=O)=C(N2CC2)C1=O?
Answer: T/C (dose: 0.25 mg/kg/injection, schedule: Q01DX010 (ip), vehicle: saline): 125 % of control; T/C [11]: 133 % of control; T/C [12]: 129 % of control

Question: For COc1cc(-c2ccc(Nc3ccccc3C(=O)O)c(OC)c2)ccc1N, which T/C [5] is on record?
Answer: 130 % of control

Question: What about the survivor count [6] of the same molecule?
Answer: 0 of 6

Question: Which survivor count [13] does the source give for COc1cc(C(=O)O)c2c(c1C)OC(=O)c1c(C)cc(O)c(C=O)c1O2 here?
Answer: 3 of 6

Question: O=c1[nH]c(=O)n(C2CC(O)C(CO)O2)cc1F (stereo not drawn) was tested. Which T/C [14] did it give?
Answer: 126 and 127 % of control

Question: And the T/C [5]?
Answer: 138 % of control

Question: How did the T/C [13] turn out when O=C(Nc1ccc(C2=NCCN2)cc1)c1cccc(C(=O)Nc2ccc(C3=NCCN3)cc2)c1 was run?
Answer: 138 and 142 % of control

Question: With NC(Cc1ccc(N(CCCl)CCCl)cc1)C(=O)O (stereo not drawn) as the molecule, how does the T/C [15] read?
Answer: 146 % of control

Question: And the survivor count [14]?
Answer: 6 of 6

Question: Which T/C [11] does the source give for CS(=O)(=O)OCCN(CCOS(C)(=O)=O)c1ccc(N=O)cc1 here?
Answer: 136 % of control

Question: What about the T/C [12] of the same molecule?
Answer: 131 % of control

Question: What about the survivor count [16] of the same molecule?
Answer: 6 of 6

Question: How did the T/C [5] turn out when C[C@@H]1C[C@@H]([C@H](O)CC2CC(=O)NC(=O)C2)C(=O)[C@@H](C)C1 was run?
Answer: 128 % of control

Question: CS(=O)(=O)OCCCCOS(C)(=O)=O was tested. Which T/C (dose: 6.25 mg/kg/injection, schedule: Q01DX010 (ip), vehicle: saline) did it give?
Answer: 131 % of control

Question: What about the T/C [8] of the same molecule?
Answer: 128 % of control

Question: C[C@]12C=CC(=O)C=C1CC[C@@H]1[C@@H]2[C@@H](O)C[C@@]2(C)[C@H]1CC[C@]2(O)C(=O)CO was tested. Which survivor count (dose: 12.5 mg/kg/injection, schedule: Q01DX010 (sc), vehicle: steroid suspending solution) did it give?
Answer: 6 of 6

Question: What about the survivor count (dose: 25.0 mg/kg/injection, schedule: Q01DX010 (sc), vehicle: steroid suspending solution) of the same molecule?
Answer: 6 of 6

Question: What about the survivor count (dose: 50.0 mg/kg/injection, schedule: Q01DX010 (sc), vehicle: steroid suspending solution) of the same molecule?
Answer: 6 of 6

Question: And the survivor count (dose: 100.0 mg/kg/injection, schedule: Q01DX010 (sc), vehicle: steroid suspending solution)?
Answer: 6 of 6

Question: How did the T/C (dose: 54.0 mg/kg/injection, schedule: Q01DX010 (ip), vehicle: saline) turn out when CN(C)c1ccc(Nc2c3ccccc3nc3ccccc23)cc1 was run?
Answer: 127 % of control

Question: And the T/C [6]?
Answer: 145 % of control

Question: With CS(=O)(=O)OCCCl as the molecule, how does the survivor count (dose: 150.0 mg/kg/injection, schedule: Q01DX010 (ip), vehicle: saline) read?
Answer: 3 of 6

Question: Which survivor count [10] does the source give for O=c1c(O)cccc2cc(O)c(O)c(O)c12 here?
Answer: 6 of 6

Question: And the survivor count [1]?
Answer: 6 of 6

Question: For CCN(CCNc1ccc(C)c2sc3cc(Cl)ccc3c(=O)c12)CC(C)O (stereo not drawn), which survivor count [2] is on record?
Answer: 6 of 6

Question: And the survivor count (dose: 500.0 mg/kg/injection, schedule: Q01DX010 (ip), vehicle: saline)?
Answer: 5 of 6

Question: What does the source list for CN(C)/N=N/c1nc[nH]c1C(N)=O?
Answer: T/C [9]: 127 % of control; T/C [10]: 131 % of control

Question: Which T/C [3] does the source give for C=CC(CN1CC1)OC(C)=O (stereo not drawn) here?
Answer: 136 % of control

Question: With Nc1nc(=S)c2ncn(C3OC(CO)C(O)C3O)c2[nH]1 (stereo not drawn) as the molecule, how does the T/C [12] read?
Answer: 130 and 131 % of control

Question: Which T/C [15] does the source give for O=C(O)c1[nH]c(=O)[nH]c(=O)c1F here?
Answer: 125 % of control

Question: How did the T/C (dose: 3.13 mg/kg/injection, schedule: Q01DX010 (ip), vehicle: saline) turn out when N=[N+]=CC(=O)OCC(N)C(=O)O (stereo not drawn) was run?
Answer: 145 % of control

Question: And the T/C [7]?
Answer: 145 % of control

Question: And the survivor count [8]?
Answer: 6 of 6

Question: O=C(Nc1ccc(NC2=NCCN2)cc1)c1ccc(C(=O)Nc2ccc(NC3=NCCN3)cc2)cc1 was tested. Which T/C (dose: 4.0 mg/kg/injection, schedule: Q01DX010 (ip), vehicle: saline) did it give?
Answer: 127 and 133 % of control

Question: For C1CN1c1nc(N2CC2)nc(N2CC2)n1, which survivor count [12] is on record?
Answer: 6 of 6

Question: And the survivor count [16]?
Answer: 0 of 6

Question: How did the survivor count [9] turn out when Cc1cc2nc3c(=O)[nH]c(=O)nc-3n(CC(O)C(O)C(O)C(O)CO)c2cc1C (stereo not drawn) was run?
Answer: 7 of 7

Question: What about the survivor count [10] of the same molecule?
Answer: 7 of 7

Question: And the survivor count [1]?
Answer: 7 of 7
